# Measurements published in the supplement of paper PMC12819154, “High-throughput peptide-centric local stability assay extends protein–ligand identification to membrane proteins, tissues and bacteria” (Nature Structural & Molecular Biology, 2025).
# Chains of the proteins cited; added tags and fusions are not shown. Lines headed by an entry give the natural chain unless they say otherwise; changes in a name come on top.
# UniProt Q9HCK8: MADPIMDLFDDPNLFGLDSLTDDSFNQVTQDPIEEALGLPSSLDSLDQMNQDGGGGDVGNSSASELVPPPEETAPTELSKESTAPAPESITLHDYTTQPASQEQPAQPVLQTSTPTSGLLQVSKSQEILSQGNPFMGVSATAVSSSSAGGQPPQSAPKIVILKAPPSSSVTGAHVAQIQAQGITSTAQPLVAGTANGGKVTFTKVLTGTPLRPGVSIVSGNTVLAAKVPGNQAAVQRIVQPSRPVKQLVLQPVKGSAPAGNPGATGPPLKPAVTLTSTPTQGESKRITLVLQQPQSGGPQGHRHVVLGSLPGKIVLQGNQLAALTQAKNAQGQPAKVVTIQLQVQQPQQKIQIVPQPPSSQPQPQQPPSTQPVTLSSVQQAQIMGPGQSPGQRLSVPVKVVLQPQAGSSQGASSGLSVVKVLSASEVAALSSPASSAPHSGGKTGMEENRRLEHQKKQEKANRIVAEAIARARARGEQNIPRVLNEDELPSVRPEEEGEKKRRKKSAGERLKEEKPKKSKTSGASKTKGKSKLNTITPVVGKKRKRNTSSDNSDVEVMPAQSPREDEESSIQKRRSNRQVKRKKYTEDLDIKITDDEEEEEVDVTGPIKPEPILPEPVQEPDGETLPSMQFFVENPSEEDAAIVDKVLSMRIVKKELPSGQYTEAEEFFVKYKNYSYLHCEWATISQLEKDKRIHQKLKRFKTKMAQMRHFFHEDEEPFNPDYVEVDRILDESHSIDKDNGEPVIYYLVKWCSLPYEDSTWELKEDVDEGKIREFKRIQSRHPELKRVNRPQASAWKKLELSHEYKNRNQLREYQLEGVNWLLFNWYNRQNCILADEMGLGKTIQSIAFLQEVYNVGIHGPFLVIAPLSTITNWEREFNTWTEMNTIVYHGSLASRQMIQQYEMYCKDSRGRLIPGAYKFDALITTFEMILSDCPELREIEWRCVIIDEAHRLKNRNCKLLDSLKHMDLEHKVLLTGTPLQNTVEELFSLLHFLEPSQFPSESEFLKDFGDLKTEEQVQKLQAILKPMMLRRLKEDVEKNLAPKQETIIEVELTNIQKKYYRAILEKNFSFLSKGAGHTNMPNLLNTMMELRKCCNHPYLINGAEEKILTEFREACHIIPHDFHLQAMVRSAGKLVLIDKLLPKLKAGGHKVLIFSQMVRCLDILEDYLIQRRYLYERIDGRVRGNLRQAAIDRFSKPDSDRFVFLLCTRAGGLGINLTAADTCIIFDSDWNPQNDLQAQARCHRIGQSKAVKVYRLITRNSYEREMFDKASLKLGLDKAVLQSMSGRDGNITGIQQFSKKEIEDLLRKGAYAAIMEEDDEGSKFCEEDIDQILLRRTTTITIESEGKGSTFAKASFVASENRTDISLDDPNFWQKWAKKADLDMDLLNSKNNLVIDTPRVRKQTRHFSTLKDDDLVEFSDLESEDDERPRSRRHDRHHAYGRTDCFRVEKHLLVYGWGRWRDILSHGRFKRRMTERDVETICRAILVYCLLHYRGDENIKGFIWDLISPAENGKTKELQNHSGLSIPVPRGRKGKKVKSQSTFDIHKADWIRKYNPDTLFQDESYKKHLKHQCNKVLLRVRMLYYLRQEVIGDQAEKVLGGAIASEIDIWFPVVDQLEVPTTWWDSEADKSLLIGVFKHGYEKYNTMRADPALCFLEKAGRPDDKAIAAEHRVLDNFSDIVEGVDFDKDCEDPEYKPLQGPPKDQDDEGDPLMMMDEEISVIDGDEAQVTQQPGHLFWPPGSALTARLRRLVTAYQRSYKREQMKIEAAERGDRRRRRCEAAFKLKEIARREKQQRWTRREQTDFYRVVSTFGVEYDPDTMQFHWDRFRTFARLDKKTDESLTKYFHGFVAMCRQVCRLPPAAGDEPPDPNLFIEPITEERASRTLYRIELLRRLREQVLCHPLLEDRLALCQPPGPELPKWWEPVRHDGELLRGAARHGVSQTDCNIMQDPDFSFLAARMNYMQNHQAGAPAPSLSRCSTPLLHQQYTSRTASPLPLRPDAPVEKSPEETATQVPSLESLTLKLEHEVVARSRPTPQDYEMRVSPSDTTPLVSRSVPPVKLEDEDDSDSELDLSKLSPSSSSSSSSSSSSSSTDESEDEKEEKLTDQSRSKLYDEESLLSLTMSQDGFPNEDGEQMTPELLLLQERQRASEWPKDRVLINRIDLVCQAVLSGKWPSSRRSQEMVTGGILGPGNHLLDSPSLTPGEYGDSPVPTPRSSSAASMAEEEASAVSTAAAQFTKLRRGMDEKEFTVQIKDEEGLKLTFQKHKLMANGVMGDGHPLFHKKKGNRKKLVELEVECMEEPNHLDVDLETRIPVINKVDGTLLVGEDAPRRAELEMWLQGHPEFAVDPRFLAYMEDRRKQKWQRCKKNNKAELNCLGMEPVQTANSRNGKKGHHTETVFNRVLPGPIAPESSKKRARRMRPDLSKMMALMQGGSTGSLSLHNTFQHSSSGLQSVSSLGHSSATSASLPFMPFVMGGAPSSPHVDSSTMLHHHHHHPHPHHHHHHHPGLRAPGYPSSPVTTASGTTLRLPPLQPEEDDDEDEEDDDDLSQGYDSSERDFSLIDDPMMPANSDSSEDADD
# UniProt Q9NPI8: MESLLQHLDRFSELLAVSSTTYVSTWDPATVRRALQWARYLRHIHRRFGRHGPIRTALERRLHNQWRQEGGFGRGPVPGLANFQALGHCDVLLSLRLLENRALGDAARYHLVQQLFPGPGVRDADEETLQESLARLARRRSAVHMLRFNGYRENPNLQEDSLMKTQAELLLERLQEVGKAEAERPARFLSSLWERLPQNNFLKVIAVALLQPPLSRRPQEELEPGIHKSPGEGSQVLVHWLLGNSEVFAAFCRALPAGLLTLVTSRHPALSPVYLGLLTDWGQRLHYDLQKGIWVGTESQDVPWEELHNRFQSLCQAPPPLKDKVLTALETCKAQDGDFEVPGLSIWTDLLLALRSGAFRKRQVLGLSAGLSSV
# UniProt Q9NTJ5: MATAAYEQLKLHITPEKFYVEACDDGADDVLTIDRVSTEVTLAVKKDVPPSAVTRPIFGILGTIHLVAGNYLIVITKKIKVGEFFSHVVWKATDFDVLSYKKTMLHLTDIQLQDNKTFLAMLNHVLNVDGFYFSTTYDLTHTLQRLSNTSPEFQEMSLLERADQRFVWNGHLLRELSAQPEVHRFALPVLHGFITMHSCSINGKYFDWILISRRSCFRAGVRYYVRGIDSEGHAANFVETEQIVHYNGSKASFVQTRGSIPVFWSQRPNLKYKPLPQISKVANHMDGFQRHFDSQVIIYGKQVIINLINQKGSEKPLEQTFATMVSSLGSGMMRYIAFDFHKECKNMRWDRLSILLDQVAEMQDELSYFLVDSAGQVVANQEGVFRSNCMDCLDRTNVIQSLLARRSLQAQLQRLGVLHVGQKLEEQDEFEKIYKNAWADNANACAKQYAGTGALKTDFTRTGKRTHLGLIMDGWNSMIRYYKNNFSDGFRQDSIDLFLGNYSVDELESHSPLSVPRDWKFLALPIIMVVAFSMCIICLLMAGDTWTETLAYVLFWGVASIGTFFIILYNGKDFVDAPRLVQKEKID
# UniProt Q9NS91, whole entry: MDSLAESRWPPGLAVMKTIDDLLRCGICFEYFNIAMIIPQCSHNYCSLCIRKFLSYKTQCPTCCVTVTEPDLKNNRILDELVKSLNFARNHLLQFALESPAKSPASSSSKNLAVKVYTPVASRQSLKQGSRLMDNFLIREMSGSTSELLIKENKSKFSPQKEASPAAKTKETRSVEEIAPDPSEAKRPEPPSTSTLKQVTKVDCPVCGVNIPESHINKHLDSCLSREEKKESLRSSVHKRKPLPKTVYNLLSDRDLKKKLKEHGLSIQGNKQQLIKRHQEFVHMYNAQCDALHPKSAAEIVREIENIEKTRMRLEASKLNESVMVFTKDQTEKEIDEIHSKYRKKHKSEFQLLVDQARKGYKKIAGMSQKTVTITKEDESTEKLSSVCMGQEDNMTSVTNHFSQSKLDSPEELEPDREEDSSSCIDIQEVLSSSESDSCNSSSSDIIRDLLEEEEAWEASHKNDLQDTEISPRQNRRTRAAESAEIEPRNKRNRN
# UniProt Q9NVI7: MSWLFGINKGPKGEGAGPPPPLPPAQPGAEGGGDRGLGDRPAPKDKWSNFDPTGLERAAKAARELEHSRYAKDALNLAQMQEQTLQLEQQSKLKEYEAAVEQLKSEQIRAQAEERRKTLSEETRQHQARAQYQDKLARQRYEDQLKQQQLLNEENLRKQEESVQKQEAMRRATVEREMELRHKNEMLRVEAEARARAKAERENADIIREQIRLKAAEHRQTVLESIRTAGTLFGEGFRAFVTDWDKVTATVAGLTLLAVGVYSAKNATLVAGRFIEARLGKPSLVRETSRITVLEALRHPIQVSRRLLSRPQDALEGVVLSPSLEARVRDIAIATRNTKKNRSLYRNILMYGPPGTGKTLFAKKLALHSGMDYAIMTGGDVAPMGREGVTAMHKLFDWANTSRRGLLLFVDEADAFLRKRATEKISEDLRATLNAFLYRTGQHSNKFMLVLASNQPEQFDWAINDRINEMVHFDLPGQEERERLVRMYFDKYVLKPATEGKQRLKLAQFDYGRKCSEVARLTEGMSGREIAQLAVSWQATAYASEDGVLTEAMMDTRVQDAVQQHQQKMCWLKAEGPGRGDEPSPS
# UniProt Q9NPB8: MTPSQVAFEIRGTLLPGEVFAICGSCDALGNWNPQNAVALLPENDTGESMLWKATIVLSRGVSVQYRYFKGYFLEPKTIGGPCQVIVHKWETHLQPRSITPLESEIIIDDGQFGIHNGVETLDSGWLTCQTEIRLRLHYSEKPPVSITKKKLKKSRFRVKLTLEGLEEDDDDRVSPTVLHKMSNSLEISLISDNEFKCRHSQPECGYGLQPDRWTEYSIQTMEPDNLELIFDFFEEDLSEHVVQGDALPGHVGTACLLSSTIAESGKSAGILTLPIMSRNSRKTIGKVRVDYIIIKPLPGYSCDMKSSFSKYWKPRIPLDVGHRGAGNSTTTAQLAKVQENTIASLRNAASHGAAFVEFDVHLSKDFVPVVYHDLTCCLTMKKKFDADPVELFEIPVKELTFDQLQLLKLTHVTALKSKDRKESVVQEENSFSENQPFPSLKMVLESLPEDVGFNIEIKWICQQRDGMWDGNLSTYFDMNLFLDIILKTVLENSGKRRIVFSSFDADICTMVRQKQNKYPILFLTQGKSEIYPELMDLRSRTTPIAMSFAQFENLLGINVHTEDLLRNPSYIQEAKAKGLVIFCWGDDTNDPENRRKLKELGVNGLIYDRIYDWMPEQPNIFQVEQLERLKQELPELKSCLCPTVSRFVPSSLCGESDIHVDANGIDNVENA
# UniProt Q9NNW7, whole entry: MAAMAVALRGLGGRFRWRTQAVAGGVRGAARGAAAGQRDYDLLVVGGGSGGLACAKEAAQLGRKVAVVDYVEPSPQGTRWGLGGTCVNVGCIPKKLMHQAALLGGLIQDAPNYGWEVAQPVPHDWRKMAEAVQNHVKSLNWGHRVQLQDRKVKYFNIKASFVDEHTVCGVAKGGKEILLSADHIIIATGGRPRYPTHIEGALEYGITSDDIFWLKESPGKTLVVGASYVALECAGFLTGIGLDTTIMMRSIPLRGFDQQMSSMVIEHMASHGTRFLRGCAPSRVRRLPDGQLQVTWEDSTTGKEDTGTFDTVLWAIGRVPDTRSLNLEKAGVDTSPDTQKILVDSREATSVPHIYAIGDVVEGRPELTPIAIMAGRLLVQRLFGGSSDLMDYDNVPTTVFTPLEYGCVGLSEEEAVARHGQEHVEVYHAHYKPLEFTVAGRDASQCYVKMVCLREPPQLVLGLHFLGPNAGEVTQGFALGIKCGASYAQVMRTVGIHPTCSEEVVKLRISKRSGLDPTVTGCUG
# UniProt Q9NP97, whole entry: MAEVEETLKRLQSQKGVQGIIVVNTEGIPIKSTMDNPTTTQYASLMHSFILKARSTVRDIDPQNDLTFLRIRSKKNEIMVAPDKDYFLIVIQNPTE
# UniProt Q9NW82: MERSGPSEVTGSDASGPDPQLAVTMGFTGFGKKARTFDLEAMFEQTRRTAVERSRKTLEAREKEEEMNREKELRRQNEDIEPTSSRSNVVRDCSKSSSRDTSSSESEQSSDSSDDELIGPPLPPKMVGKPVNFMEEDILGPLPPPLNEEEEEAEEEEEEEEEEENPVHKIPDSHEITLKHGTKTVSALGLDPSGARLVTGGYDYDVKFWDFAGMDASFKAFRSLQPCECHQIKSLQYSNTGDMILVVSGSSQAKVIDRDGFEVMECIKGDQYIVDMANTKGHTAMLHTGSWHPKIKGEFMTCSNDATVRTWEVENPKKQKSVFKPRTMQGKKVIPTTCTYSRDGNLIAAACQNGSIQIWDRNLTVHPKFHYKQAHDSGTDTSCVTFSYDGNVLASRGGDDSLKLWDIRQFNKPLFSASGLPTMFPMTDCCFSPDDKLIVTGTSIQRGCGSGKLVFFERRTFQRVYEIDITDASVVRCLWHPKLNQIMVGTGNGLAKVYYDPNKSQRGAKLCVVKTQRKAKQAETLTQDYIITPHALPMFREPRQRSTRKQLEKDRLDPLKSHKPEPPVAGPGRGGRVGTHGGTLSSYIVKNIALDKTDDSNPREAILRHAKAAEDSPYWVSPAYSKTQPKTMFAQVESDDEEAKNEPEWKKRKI
# Some of the results follow. Small differences around the control level are noise.
# Compound: Cc1nc(Nc2ncc(C(=O)Nc3c(C)cccc3Cl)s2)cc(N2CCN(CCO)CC2)n1 [dasatinib]
# Assay: log2 fold change of tryptic peptide abundance, ligand vs vehicle (limited proteolysis) (log2 ratio); higher = more trypsin-susceptible (destabilized)
# Conditions: ligand concentration: 5 uM; sample: K562 cleared lysate
row,Target,log2 fold change
1,"CHD8 (peptide sequence: SRPTPQDYEMR, peptide start residue: 2034) (UniProt Q9HCK8)",-0.251
2,"C14orf119 (peptide sequence: FYQAVAATAGKD, peptide start residue: 129) (UniProt Q9NWQ9)",-0.114
3,"ANO10 (peptide sequence: LVTENLKEEPMESGKEK, peptide start residue: 642) (UniProt Q9NW15)",0.162
4,"DDX4 (peptide sequence: DLMACAQTGSGK, peptide start residue: 219) (UniProt Q9NQI0)",0.0449
5,"FAIM (peptide sequence: TTNTWVLHMDGENFR, peptide start residue: 96) (UniProt Q9NVQ4)",0.192
6,"HIF1AN (peptide sequence: RIEYPLKAHQK, peptide start residue: 305) (UniProt Q9NWT6)",1.38
7,"UniProt Q9HCM9 (peptide sequence: DFPCPVCRK, peptide start residue: 63)",-0.107
8,"GPN1 (peptide sequence: SLANAESQQQR, peptide start residue: 279) (UniProt Q9HCN4)",-0.0513
9,"UniProt Q9NQ39 (peptide sequence: AMQSLKSR, peptide start residue: 48)",0.921
10,"FANCF (peptide sequence: TQAELLLER, peptide start residue: 165) (UniProt Q9NPI8)",-0.264
11,"SACM1L (peptide sequence: SNCMDCLDR, peptide start residue: 387) (UniProt Q9NTJ5)",0.502
12,"KIF13B (peptide sequence: GKRPSPLAHQPVPR, peptide start residue: 1477) (UniProt Q9NQT8)",-1.02
13,"DMAP1 (peptide sequence: EAEKPAVPETAGIK, peptide start residue: 298) (UniProt Q9NPF5)",-0.353
14,"MAN2C1 (peptide sequence: TSYVLTDR, peptide start residue: 126) (UniProt Q9NTJ4)",0.0559
15,"RAD18 (peptide sequence: TVTITKEDESTEK, peptide start residue: 371) (UniProt Q9NS91)",0.113
16,"ALG13 (peptide sequence: ALDPEIYR, peptide start residue: 459) (UniProt Q9NP73)",0.175
17,"ATAD3A (peptide sequence: VQDAVQQHQQK, peptide start residue: 606) (UniProt Q9NVI7)",1.57
18,"UniProt Q9NQW1 (peptide sequence: KLKELER, peptide start residue: 2)",0.0816
19,"INPP5E (peptide sequence: TANKVDSDLADYK, peptide start residue: 208) (UniProt Q9NRR6)",1.02

row,Target,log2 fold change
1,"XAGE1A (peptide sequence: EEHCKMPEAGEEQPQV, peptide start residue: 66) (UniProt Q9HD64)",-0.272
2,"UniProt Q9NSY1 (peptide sequence: FLNPQKDGVNVVEEEIK, peptide start residue: 206)",-0.378
3,"UniProt Q9NS56 (peptide sequence: HLEGTNEVAQPSR, peptide start residue: 802)",0.235
4,"RGS18 (peptide sequence: ETRVSPEEAVK, peptide start residue: 72) (UniProt Q9NS28)",0.0143
5,"UniProt Q9NWU2 (peptide sequence: ECLTEMER, peptide start residue: 138)",0.222
6,"MTPAP (peptide sequence: TVLIHCPEKISENK, peptide start residue: 77) (UniProt Q9NVV4)",0.525
7,"BSDC1 (peptide sequence: VETLREEAPTDLR, peptide start residue: 354) (UniProt Q9NW68)",0.0844
8,"GPCPD1 (peptide sequence: QNKYPILFLTQGK, peptide start residue: 516) (UniProt Q9NPB8)",-0.201
9,"TXNRD2 (peptide sequence: GFDQQMSSMVIEHMASHGTR, peptide start residue: 255) (UniProt Q9NNW7)",-0.36
10,"ZCCHC17 (peptide sequence: DCFMQPGGTK, peptide start residue: 145) (UniProt Q9NP64)",-0.422
11,"MRPL22 (peptide sequence: SNLYIAESTSGR, peptide start residue: 132) (UniProt Q9NWU5)",0.0618
12,"SEPSECS (peptide sequence: SGDISAVQPK, peptide start residue: 98) (UniProt Q9HD40)",0.35
13,"WDR6 (peptide sequence: VQNIGHCFGHSAR, peptide start residue: 248) (UniProt Q9NNW5)",0.567
14,"UniProt Q9NRP2 (peptide sequence: LFNPPEESEK, peptide start residue: 70)",0.155
15,"UniProt Q9NR83 (peptide sequence: KVYGMER, peptide start residue: 362)",-0.00118
16,"DYNLRB1 (peptide sequence: STVRDIDPQNDLTFLR, peptide start residue: 55) (UniProt Q9NP97)",-0.172
17,"WDR70 (peptide sequence: QNEDIEPTSSR, peptide start residue: 76) (UniProt Q9NW82)",-0.282
18,"LUC7L (peptide sequence: SERGPPDWR, peptide start residue: 342) (UniProt Q9NQ29)",0.348

# Exported with bars between the fields: part of the list above
row | Target | log2 fold change
19 | INPP5E (peptide sequence: TANKVDSDLADYK, peptide start residue: 208) (UniProt Q9NRR6) | 1.02
10 | ZCCHC17 (peptide sequence: DCFMQPGGTK, peptide start residue: 145) (UniProt Q9NP64) | -0.422
